Data as given in PubChem BioAssay AID652243 (Drosophila RNAi Screening Center, 2013)

Aim: 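Fly regulators of androgen-dependent reporter output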 (primary screen)
Cells: Drosophila S2R+ cells
Reagent: long dsRNA against Drosophila genes
Time to read-out: 72 h (48 h, then 24 h hormone)
Treatment: synthetic androgen R1881 at 10 nM for 24 h
Measurement: 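Per-well raw luminescence of the androgen-driven firefly reporter and of the Renilla control, two replicates each, without normalisation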
Scale: firefly reporter light: higher = more light from androgen-responsive reporter; Renilla control light: higher = more constitutive control signal (cell number, transfection)
Hit rule: 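Hit when the log firefly-to-Renilla ratio dropped or increased by a fixed fold versus the mean of GFP or LacZ controls across duplicate plates; lowering cut given as 1.5 and as 3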
Meaning of the calls: active = hit: reporter lowered or raised; inactive = no hit
In all, the deposit lists about 24,000 reagents; below is a random part of those with a known target gene and a result. Of all reagents, 246 (1%) got an active call. 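Plates not normalised; calls are printed but the firefly/Renilla ratio behind them is not deposited; fold cut for lowering reported inconsistently.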 Raw values vary from plate to plate and are shown uncorrected. A plus sign joins genes that one reagent is predicted to hit. Not given: the amount of reagent.

Depletion of HmgD (High mobility group protein D) [DRSC04619] gave: firefly reporter light, replicate 1 = 9.45e5; firefly reporter light, replicate 2 = 1.02e6; Renilla control light, replicate 1 = 2.85e6; Renilla control light, replicate 2 = 2.65e6; inactive.
Silencing of HmgD (High mobility group protein D) [DRSC26171] resulted in: firefly reporter light, replicate 1 = 4.21e5; firefly reporter light, replicate 2 = 3.64e5; Renilla control light, replicate 1 = 5.21e5; Renilla control light, replicate 2 = 5.65e5; inactive.
Against gsb (gooseberry) [DRSC04692], the values are firefly reporter light, replicate 1 = 3.05e5; firefly reporter light, replicate 2 = 3.13e5; Renilla control light, replicate 1 = 2.08e6; Renilla control light, replicate 2 = 2.26e6; inactive.
Knock-down of gsb (gooseberry) [DRSC25821] resulted in: firefly reporter light, replicate 1 = 4.23e5; firefly reporter light, replicate 2 = 4.29e5; Renilla control light, replicate 1 = 7.39e5; Renilla control light, replicate 2 = 4.16e5; inactive.
Against Or22a (Odorant receptor 22a) [DRSC00764], the values are firefly reporter light, replicate 1 = 1.53e5; firefly reporter light, replicate 2 = 1.72e5; Renilla control light, replicate 1 = 7.95e5; Renilla control light, replicate 2 = 9.57e5; inactive.
Depletion of Or22a (Odorant receptor 22a) [DRSC26009] resulted in: firefly reporter light, replicate 1 = 5.02e5; firefly reporter light, replicate 2 = 5.16e5; Renilla control light, replicate 1 = 8.52e5; Renilla control light, replicate 2 = 7.01e5; inactive.
Knock-down of TotE (Turandot E) [DRSC21355] gave: firefly reporter light, replicate 1 = 5.68e5; firefly reporter light, replicate 2 = 4.17e5; Renilla control light, replicate 1 = 1.33e6; Renilla control light, replicate 2 = 1.32e6; inactive.
For vib (vibrator) [DRSC17094], the entry reads firefly reporter light, replicate 1 = 75708; firefly reporter light, replicate 2 = 1.35e5; Renilla control light, replicate 1 = 1.25e6; Renilla control light, replicate 2 = 1.36e6; inactive.
After knock-down of CG7988 [DRSC16358] the results were firefly reporter light, replicate 1 = 1.51e5; firefly reporter light, replicate 2 = 1.63e5; Renilla control light, replicate 1 = 1.48e6; Renilla control light, replicate 2 = 1.59e6; inactive.
Vps50 (Vacuolar protein sorting 50) [DRSC06910] scored firefly reporter light, replicate 1 = 5.08e5; firefly reporter light, replicate 2 = 3.00e5; Renilla control light, replicate 1 = 7.38e5; Renilla control light, replicate 2 = 4.29e5; inactive.
Depletion of CG14042 + SP555 [DRSC02367] resulted in: firefly reporter light, replicate 1 = 35057; firefly reporter light, replicate 2 = 19892; Renilla control light, replicate 1 = 3.11e5; Renilla control light, replicate 2 = 2.55e5; inactive.
After knock-down of CG14042 + SP555 [DRSC03428] the results were firefly reporter light, replicate 1 = 1.49e5; firefly reporter light, replicate 2 = 2.26e5; Renilla control light, replicate 1 = 2.77e6; Renilla control light, replicate 2 = 2.17e6; inactive.
CG7457 [DRSC10849] showed firefly reporter light, replicate 1 = 1.06e5; firefly reporter light, replicate 2 = 1.05e5; Renilla control light, replicate 1 = 1.37e6; Renilla control light, replicate 2 = 1.33e6; inactive.
Silencing of CG7457 [DRSC27107] gave: firefly reporter light, replicate 1 = 6.46e5; firefly reporter light, replicate 2 = 5.84e5; Renilla control light, replicate 1 = 6.02e5; Renilla control light, replicate 2 = 4.45e5; inactive.
CG15020 [DRSC08474] scored firefly reporter light, replicate 1 = 97969; firefly reporter light, replicate 2 = 80052; Renilla control light, replicate 1 = 9.95e5; Renilla control light, replicate 2 = 1.44e6; inactive.
After knock-down of CG9799 [DRSC16567], the record shows firefly reporter light, replicate 1 = 40397; firefly reporter light, replicate 2 = 30556; Renilla control light, replicate 1 = 4.69e5; Renilla control light, replicate 2 = 3.18e5; inactive.
With knock-down of CG12126 [DRSC06103] the results were firefly reporter light, replicate 1 = 3.08e5; firefly reporter light, replicate 2 = 3.58e5; Renilla control light, replicate 1 = 2.56e6; Renilla control light, replicate 2 = 2.32e6; inactive.
After knock-down of CG31952 [DRSC00428], the screen gave firefly reporter light, replicate 1 = 1.39e5; firefly reporter light, replicate 2 = 1.00e5; Renilla control light, replicate 1 = 1.32e6; Renilla control light, replicate 2 = 1.36e6; inactive.
For CG31952 [DRSC21997], the entry reads firefly reporter light, replicate 1 = 78008; firefly reporter light, replicate 2 = 98620; Renilla control light, replicate 1 = 5.81e5; Renilla control light, replicate 2 = 4.37e5; inactive.
After knock-down of CG31952 [DRSC26442] the results were firefly reporter light, replicate 1 = 2.76e5; firefly reporter light, replicate 2 = 3.04e5; Renilla control light, replicate 1 = 9.26e5; Renilla control light, replicate 2 = 1.02e6; inactive.
After knock-down of betaTub60D (beta-Tubulin at 60D) [DRSC04673], the record shows firefly reporter light, replicate 1 = 3.19e5; firefly reporter light, replicate 2 = 3.05e5; Renilla control light, replicate 1 = 2.15e6; Renilla control light, replicate 2 = 2.14e6; inactive.
Depletion of betaTub60D (beta-Tubulin at 60D) [DRSC22218] gave: firefly reporter light, replicate 1 = 5.25e5; firefly reporter light, replicate 2 = 2.75e5; Renilla control light, replicate 1 = 1.39e6; Renilla control light, replicate 2 = 1.14e6; inactive.
betaTub60D (beta-Tubulin at 60D) [DRSC23872] gave firefly reporter light, replicate 1 = 7.14e5; firefly reporter light, replicate 2 = 6.28e5; Renilla control light, replicate 1 = 5.07e5; Renilla control light, replicate 2 = 6.19e5; inactive.
After knock-down of betaTub60D (beta-Tubulin at 60D) [DRSC38952], the screen gave firefly reporter light, replicate 1 = 3.80e5; firefly reporter light, replicate 2 = 3.38e5; Renilla control light, replicate 1 = 1.02e6; Renilla control light, replicate 2 = 9.09e5; inactive.
Against Ogdh (Oxoglutarate dehydrogenase) [DRSC09854], the entry reads firefly reporter light, replicate 1 = 93551; firefly reporter light, replicate 2 = 1.01e5; Renilla control light, replicate 1 = 5.83e5; Renilla control light, replicate 2 = 6.20e5; inactive.
For Ogdh (Oxoglutarate dehydrogenase) [DRSC09855], the entry reads firefly reporter light, replicate 1 = 2.14e5; firefly reporter light, replicate 2 = 1.39e5; Renilla control light, replicate 1 = 1.97e6; Renilla control light, replicate 2 = 1.66e6; inactive.
With knock-down of MsrA (Methionine sulfoxide reductase A) [DRSC11159] the results were firefly reporter light, replicate 1 = 2.67e5; firefly reporter light, replicate 2 = 1.78e5; Renilla control light, replicate 1 = 2.50e6; Renilla control light, replicate 2 = 1.59e6; inactive.

Quoted from the entries so far, 2 entries:
CG31952 [DRSC26442] | firefly reporter light, replicate 1: 2.76e5; firefly reporter light, replicate 2: 3.04e5; Renilla control light, replicate 1: 9.26e5; Renilla control light, replicate 2: 1.02e6; activity call: inactive
betaTub60D (beta-Tubulin at 60D) [DRSC04673] | firefly reporter light, replicate 1: 3.19e5; firefly reporter light, replicate 2: 3.05e5; Renilla control light, replicate 1: 2.15e6; Renilla control light, replicate 2: 2.14e6; activity call: inactive
